Results published in the supplement of paper PMC8728848.
This is one part of the list.

Assays:
Assay in all cases: glycan array binding signal (z-score within array); higher = stronger binding
Conditions in all cases: glycan notation: IUPAC condensed, linker removed
[1] = biological target: Neu5Ac(a2-6)Gal(b1-4)GlcNAc(b1-2)Man(a1-3)[Man(a1-6)]Man(b1-4)GlcNAc(b1-4)GlcNAc
How it was run: (§1)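 Arrays were curated from the Consortium for Functional Glycomics database, 3228 in total, and kept only where the protein sequence was available. Binding is expressed as a within-array Z-score. This score was averaged across arrays of the same protein sequence at different concentrations or buffers and across linkers, and negative values can be read as non-binding.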

[2] = biological target: Neu5Ac(a2-6)Gal(b1-4)GlcNAc(b1-2)Man(a1-3)[Neu5Ac(a2-3)Gal(b1-4)GlcNAc(b1-2)Man(a1-6)]Man(b1-4)GlcNAc(b1-4)GlcNAc
How it was run: as §1

[3] = biological target: Neu5Ac(a2-6)Gal(b1-4)GlcNAc(b1-2)Man(a1-3)[Neu5Ac(a2-6)Gal(b1-4)GlcNAc(b1-2)Man(a1-6)]Man(b1-4)GlcNAc(b1-4)GlcNAc
How it was run: as §1

[4] = biological target: Neu5Ac(a2-6)Gal(b1-4)GlcNAc(b1-2)Man(a1-3)[Neu5Ac(a2-6)Gal(b1-4)GlcNAc(b1-2)Man(a1-6)]Man(b1-4)GlcNAc(b1-4)[Fuc(a1-6)]GlcNAc
How it was run: as §1

[5] = biological target: Neu5Ac(a2-6)Gal(b1-4)GlcNAc(b1-2)Man(a1-6)Man(b1-4)GlcNAc(b1-4)GlcNAc
How it was run: as §1

[6] = biological target: Neu5Ac(a2-6)Gal(b1-4)GlcNAc(b1-2)Man(a1-6)[Gal(b1-4)GlcNAc(b1-2)Man(a1-3)]Man(b1-4)GlcNAc(b1-4)GlcNAc
How it was run: as §1

[7] = biological target: Neu5Ac(a2-6)Gal(b1-4)GlcNAc(b1-2)Man(a1-6)[GlcNAc(b1-2)Man(a1-3)]Man(b1-4)GlcNAc(b1-4)GlcNAc
How it was run: as §1

[8] = biological target: Neu5Ac(a2-6)Gal(b1-4)GlcNAc(b1-2)Man(a1-6)[Man(a1-3)]Man(b1-4)GlcNAc(b1-4)GlcNAc
How it was run: as §1

[9] = biological target: Neu5Ac(a2-6)Gal(b1-4)GlcNAc(b1-2)[Neu5Ac(a2-6)Gal(b1-4)GlcNAc(b1-4)]Man(a1-3)[GlcNAc(b1-4)][Neu5Ac(a2-6)Gal(b1-4)GlcNAc(b1-2)[Neu5Ac(a2-6)Gal(b1-4)GlcNAc(b1-6)]Man(a1-6)]Man(b1-4)GlcNAc(b1-4)GlcNAc
How it was run: as §1

[10] = biological target: Neu5Ac(a2-6)Gal(b1-4)GlcNAc(b1-2)[Neu5Ac(a2-6)Gal(b1-4)GlcNAc(b1-4)]Man(a1-3)[GlcNAc(b1-4)][Neu5Ac(a2-6)Gal(b1-4)GlcNAc(b1-4)Man(a1-6)]Man(b1-4)GlcNAc(b1-4)GlcNAc
How it was run: as §1

[11] = biological target: Neu5Ac(a2-6)Gal(b1-4)GlcNAc(b1-2)[Neu5Ac(a2-6)Gal(b1-4)GlcNAc(b1-6)]Man(a1-6)[Neu5Ac(a2-6)Gal(b1-4)GlcNAc(b1-2)Man(a1-3)][GlcNAc(b1-4)]Man(b1-4)GlcNAc(b1-4)GlcNAc
How it was run: as §1

[12] = biological target: Neu5Ac(a2-6)Gal(b1-4)GlcNAc(b1-3)Gal(b1-3)GlcNAc
How it was run: as §1

[13] = biological target: Neu5Ac(a2-6)Gal(b1-4)GlcNAc(b1-3)Gal(b1-4)GlcNAc
How it was run: as §1

[14] = biological target: Neu5Ac(a2-6)Gal(b1-4)GlcNAc(b1-3)Gal(b1-4)GlcNAc(b1-2)Man(a1-3)[Neu5Ac(a2-6)Gal(b1-4)GlcNAc(b1-3)Gal(b1-4)GlcNAc(b1-2)Man(a1-6)]GalNAc
How it was run: as §1

[15] = biological target: Neu5Ac(a2-6)Gal(b1-4)GlcNAc(b1-3)Gal(b1-4)GlcNAc(b1-3)Gal(b1-4)GlcNAc
How it was run: as §1

[16] = biological target: Neu5Ac(a2-6)Gal(b1-4)GlcNAc(b1-3)Gal(b1-4)GlcNAc(b1-3)Gal(b1-4)GlcNAc(b1-2)Man(a1-3)[Neu5Ac(a2-6)Gal(b1-4)GlcNAc(b1-3)Gal(b1-4)GlcNAc(b1-3)Gal(b1-4)GlcNAc(b1-2)Man(a1-6)]GalNAc
How it was run: as §1

[17] = biological target: Neu5Ac(a2-6)Gal(b1-4)GlcNAc(b1-3)Gal(b1-4)GlcNAc(b1-3)GalNAc
How it was run: as §1

[18] = biological target: Neu5Ac(a2-6)Gal(b1-4)GlcNAc(b1-3)Gal(b1-4)GlcNAc(b1-3)[Neu5Ac(a2-6)Gal(b1-4)GlcNAc(b1-3)Gal(b1-4)GlcNAc(b1-6)]GalNAc
How it was run: as §1

[19] = biological target: Neu5Ac(a2-6)Gal(b1-4)GlcNAc(b1-3)Gal(b1-4)GlcNAc(b1-6)[Gal(b1-3)]GalNAc
How it was run: as §1

[20] = biological target: Neu5Ac(a2-6)Gal(b1-4)GlcNAc(b1-3)Gal(b1-4)[Fuc(a1-3)]GlcNAc(b1-3)Gal(b1-4)[Fuc(a1-3)]GlcNAc
How it was run: as §1

[21] = biological target: Neu5Ac(a2-6)Gal(b1-4)GlcNAc(b1-3)GalNAc
How it was run: as §1

[22] = biological target: Neu5Ac(a2-6)Gal(b1-4)GlcNAc(b1-3)[Neu5Ac(a2-6)Gal(b1-4)GlcNAc(b1-6)]GalNAc
How it was run: as §1

[23] = biological target: Neu5Ac(a2-6)Gal(b1-4)GlcNAc(b1-6)GalNAc
How it was run: as §1

[24] = biological target: Neu5Ac(a2-6)Gal(b1-4)GlcNAc(b1-6)[Gal(b1-3)GlcNAc(b1-3)]Gal(b1-4)Glc
How it was run: as §1

[25] = biological target: Neu5Ac(a2-6)Gal(b1-4)GlcNAc(b1-6)[Gal(b1-3)]GalNAc
How it was run: as §1

[26] = biological target: Neu5Ac(a2-6)Gal(b1-4)GlcNAc6S
How it was run: as §1

Neu5Ac(a2-6)GalNAc = biological target: Neu5Ac(a2-6)GalNAc
How it was run: as §1

[27] = biological target: Neu5Ac(a2-6)GalNAc(b1-4)GlcNAc
How it was run: as §1

[28] = biological target: Neu5Ac(a2-6)GalNAc(b1-4)GlcNAc6S
How it was run: as §1

[29] = biological target: Neu5Ac(a2-6)GlcNAc(b1-4)GlcNAc
How it was run: as §1

B1: Awp1 (Candida glabrata) (protein)
chain: MSLITIFAFLIKATLVLSLDILTPTTLTGDQTFNEDVSVVSSLTLNDGSQYLFNNLLQIAPSSASVTANALAAVSVFTFSLPPSSSLSNSGTLIISNSNTGPSTEQHIVITPNVMANTGTITLSLAHTNTDSSSTLIIDPVTFYNTGTINYESIGSETNDPSLTGNILSIGSSGRTLQNLGTINLNAANSYYLLGTITENSGSINVQKGFLYVNALDFIGNTINLSTTTALAFISPVSQVVRVRGVFFGNIIASVGSSGTFSYNTQTGILTVTTNGVYSYDIGCGYNPALMSGQQETLSFQGNPYDTFLVLVNQPIPSDLTCAAVSSSITPSSSVEPSSSVVPSSSVEPSSSVEPSSSVEPSSSVEPSSSVEPSSSVEPSSSVEPSSSVEPSSSVEPSSSVEPSSSVEPSSSVEPSSSVEPSSSVEPSSSVEPSSSVEPSSSVEPSSSVEPSSSVEPSSLIVPSSSVEPSSSVLPSSSVVPSSSVEPSTPPIPSSSVEPSSSVVPSSPAVPSSSVEPSTPPIPSSSVVSASVFDTSSTLPSSPSVPPSSVSPSTISTPSSSAAPSSFCPTCVSSGTPPAPSSSAIVPTSSAGGGNGGDNREPGAAGQPGAAGQPGAAGQPGAAGQPGAAGQPGAAGQPGAAGQPGAAGQPGAAGQPGAAGQPGAGFGVGSEQPTPGAGAGSGSADGNQSGTGSGTGNGQQGSGQAGSGQAGSGQEGSGQAGSGQAGSGQAGSGQAGSGQAGLDNTASGQSEGGQASAMDGDQSGRDGQSNSGSLLQPNAQQGTGSGTGSDIGADQASGESPGQIGDAQPGSGTDQSSGRHSLAAEARTSQSHSLAADARTRSTTRQTSVIAPDTAPGTASGTAPGTAPGTAVVTTFHGCGTVNHKGMINILLALALLVLL
**Q.** Which results are given for B1?
**A.** glycan array binding signal (z-score) [1]: 0.89; glycan array binding signal (z-score) [2]: -0.562; glycan array binding signal (z-score) [3]: -0.835; glycan array binding signal (z-score) [4]: 0.687; glycan array binding signal (z-score) [5]: 0.198; glycan array binding signal (z-score) [6]: 0.517; glycan array binding signal (z-score) [7]: 1.05; glycan array binding signal (z-score) [8]: 1.88; glycan array binding signal (z-score) [9]: -1.23; glycan array binding signal (z-score) [10]: 0.023; glycan array binding signal (z-score) [11]: -0.983; glycan array binding signal (z-score) [12]: -1.73; glycan array binding signal (z-score) [13]: -1.51; glycan array binding signal (z-score) [14]: -0.586; glycan array binding signal (z-score) [15]: -0.173; glycan array binding signal (z-score) [16]: 1.1; glycan array binding signal (z-score) [17]: -0.942; glycan array binding signal (z-score) [18]: -0.63; glycan array binding signal (z-score) [19]: -1.49; glycan array binding signal (z-score) [20]: -1.76; glycan array binding signal (z-score) [21]: 0.116; glycan array binding signal (z-score) [22]: 1.24; glycan array binding signal (z-score) [23]: -0.007; glycan array binding signal (z-score) [24]: 0.371; glycan array binding signal (z-score) [25]: 0.474; glycan array binding signal (z-score) [26]: -0.321; glycan array binding signal (z-score) (Neu5Ac(a2-6)GalNAc): -0.787; glycan array binding signal (z-score) [27]: -1.54; glycan array binding signal (z-score) [28]: 0.406; glycan array binding signal (z-score) [29]: 1.59
